# Experimental data published in PubChem BioAssay.
# Shown are results outside the selection of hits, which stands elsewhere. Active and inactive are the calls of the source.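 How the source made its calls: active means fitted curve reaches a 35% signal fall AC35 below twice the sample's top valid tested dose (actives reach about 48 µM in these data); inactive means the rest, including activity in the rising direction.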
# Assay: small-molecule DNA binding by polarization – biochemical, fluorescence polarization, cherry-pick, counter-screen for EWS/Fli inhibitor project, dose response (AID 720586);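 further: 0% = neutral control median and -100% = 10 µM mitoxantrone control median; lower polarization ratio signals compound binding to DNA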
# Conditions: salmon sperm DNA acridine orange fluorescence polarization; at 68 µM (top of the series)
structure (smiles),measurement,value
O=S(=O)(c1ccc2nc(SCc3cccc(Cl)c3)[nH]c2c1)N1CCOCC1,"activity change, negative = DNA binding",inactive: -1.52%
